Experimental data published in paper PMC12070812.

The chains behind the UniProt entries cited, without tags or fusion partners. Where a name states a change or a piece, a line headed by the entry shows the natural chain unless it says otherwise.
UniProt Q9VUH8: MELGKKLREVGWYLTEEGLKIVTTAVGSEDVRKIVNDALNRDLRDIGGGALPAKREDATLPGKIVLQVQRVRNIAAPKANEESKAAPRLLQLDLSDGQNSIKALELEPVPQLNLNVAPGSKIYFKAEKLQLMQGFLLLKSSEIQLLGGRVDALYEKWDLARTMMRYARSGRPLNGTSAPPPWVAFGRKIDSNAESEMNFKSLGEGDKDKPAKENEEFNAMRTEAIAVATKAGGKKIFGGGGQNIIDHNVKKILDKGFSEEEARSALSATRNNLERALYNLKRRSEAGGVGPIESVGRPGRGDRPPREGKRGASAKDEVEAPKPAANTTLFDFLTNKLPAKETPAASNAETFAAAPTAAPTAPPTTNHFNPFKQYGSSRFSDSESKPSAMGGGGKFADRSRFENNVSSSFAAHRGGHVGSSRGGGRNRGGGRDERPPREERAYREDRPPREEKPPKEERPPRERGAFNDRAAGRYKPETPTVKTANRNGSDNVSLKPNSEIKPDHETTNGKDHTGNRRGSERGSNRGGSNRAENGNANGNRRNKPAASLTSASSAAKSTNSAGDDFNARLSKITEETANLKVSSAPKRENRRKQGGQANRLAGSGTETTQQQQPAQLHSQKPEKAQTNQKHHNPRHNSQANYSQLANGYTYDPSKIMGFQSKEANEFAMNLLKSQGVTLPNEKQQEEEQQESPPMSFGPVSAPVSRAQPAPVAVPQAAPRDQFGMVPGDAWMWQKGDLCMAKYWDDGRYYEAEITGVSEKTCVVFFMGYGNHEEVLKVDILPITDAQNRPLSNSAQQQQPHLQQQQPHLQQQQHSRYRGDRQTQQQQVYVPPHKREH
UniProt Q9U1H9: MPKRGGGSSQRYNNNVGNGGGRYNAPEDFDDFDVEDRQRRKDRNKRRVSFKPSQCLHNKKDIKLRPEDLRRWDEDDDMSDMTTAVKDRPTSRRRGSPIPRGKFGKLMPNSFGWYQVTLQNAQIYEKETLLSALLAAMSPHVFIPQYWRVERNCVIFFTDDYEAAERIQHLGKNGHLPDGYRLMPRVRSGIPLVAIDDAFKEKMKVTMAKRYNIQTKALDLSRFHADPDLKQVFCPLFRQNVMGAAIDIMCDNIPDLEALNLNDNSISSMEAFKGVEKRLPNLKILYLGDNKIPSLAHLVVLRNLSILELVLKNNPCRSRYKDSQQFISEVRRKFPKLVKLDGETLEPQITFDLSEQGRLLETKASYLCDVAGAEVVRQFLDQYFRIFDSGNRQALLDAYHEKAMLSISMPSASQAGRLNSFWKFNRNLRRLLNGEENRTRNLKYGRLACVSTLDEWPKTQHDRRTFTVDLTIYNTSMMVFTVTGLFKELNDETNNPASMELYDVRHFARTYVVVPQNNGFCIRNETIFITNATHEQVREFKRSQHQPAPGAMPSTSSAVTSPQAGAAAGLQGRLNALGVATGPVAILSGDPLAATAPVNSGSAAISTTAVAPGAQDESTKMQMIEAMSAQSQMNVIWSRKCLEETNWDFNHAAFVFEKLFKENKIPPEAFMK
UniProt Q9VV73: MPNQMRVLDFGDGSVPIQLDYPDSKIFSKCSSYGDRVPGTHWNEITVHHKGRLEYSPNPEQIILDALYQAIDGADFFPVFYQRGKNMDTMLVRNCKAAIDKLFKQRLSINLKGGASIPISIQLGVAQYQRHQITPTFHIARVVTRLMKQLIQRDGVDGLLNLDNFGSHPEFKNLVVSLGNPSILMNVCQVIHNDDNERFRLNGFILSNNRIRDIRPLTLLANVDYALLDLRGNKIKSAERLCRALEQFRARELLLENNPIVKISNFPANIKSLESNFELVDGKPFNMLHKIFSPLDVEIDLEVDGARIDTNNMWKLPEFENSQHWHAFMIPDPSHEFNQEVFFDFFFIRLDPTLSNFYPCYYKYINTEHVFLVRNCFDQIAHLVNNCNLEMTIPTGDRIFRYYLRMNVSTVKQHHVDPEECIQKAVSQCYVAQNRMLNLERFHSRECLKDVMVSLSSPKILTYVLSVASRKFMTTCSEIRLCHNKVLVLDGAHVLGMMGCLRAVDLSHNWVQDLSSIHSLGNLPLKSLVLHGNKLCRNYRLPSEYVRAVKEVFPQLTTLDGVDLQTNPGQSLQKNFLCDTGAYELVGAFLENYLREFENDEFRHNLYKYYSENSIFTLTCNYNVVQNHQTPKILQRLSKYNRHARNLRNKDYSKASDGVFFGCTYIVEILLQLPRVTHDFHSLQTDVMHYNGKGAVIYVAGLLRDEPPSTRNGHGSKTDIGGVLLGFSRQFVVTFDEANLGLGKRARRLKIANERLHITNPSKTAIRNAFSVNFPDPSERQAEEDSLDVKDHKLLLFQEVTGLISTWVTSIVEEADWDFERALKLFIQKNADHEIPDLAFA

B1: Piwi (protein, UniProt Q9VKM1 1-843)
chain: MADDQGRGRRRPLNEDDSSTSRGSGDGPRVKVFRGSSSGDPRADPRIEASRERRALEEAPRREGGPTERKPWGDQYDYLNTRPAELVSKKGTDGVPVMLQTNFFRLKTKPEWRIVHYHVEFEPSIENPRVRMGVLSNHANLLGSGYLFDGLQLFTTRKFEQEITVLSGKSKLDIEYKISIKFVGFISCAEPRFLQVLNLILRRSMKGLNLELVGRNLFDPRAKIEIREFKMELWPGYETSIRQHEKDILLGTEITHKVMRTETIYDIMRRCSHNPARHQDEVRVNVLDLIVLTDYNNRTYRINDVDFGQTPKSTFSCKGRDISFVEYYLTKYNIRIRDHNQPLLISKNRDKALKTNASELVVLIPELCRVTGLNAEMRSNFQLMRAMSSYTRMNPKQRTDRLRAFNHRLQNTPESVKVLRDWNMELDKNVTEVQGRIIGQQNIVFHNGKVPAGENADWQRHFRDQRMLTTPSDGLDRWAVIAPQRNSHELRTLLDSLYRAASGMGLRIRSPQEFIIYDDRTGTYVRAMDDCVRSDPKLILCLVPNDNAERYSSIKKRGYVDRAVPTQVVTLKTTKNRSLMSIATKIAIQLNCKLGYTPWMIELPLSGLMTIGFDIAKSTRDRKRAYGALIASMDLQQNSTYFSTVTECSAFDVLANTLWPMIAKALRQYQHEHRKLPSRIVFYRDGVSSGSLKQLFEFEVKDIIEKLKTEYARVQLSPPQLAYIVVTRSMNTRFFLNGQNPPPGTIVDDVITLPERYDFYLVSQQVRQGTVSPTSYNVLYSSMGLSPEKMQKLTYKMCHLYYNWSGTTRVPAVCQYAKKLATLVGTNLHSIPQNALEKKFYYL
B2: SpnE (protein, UniProt Q9VF26 1-1434)
chain: MDQEVMDFFDFSKELKRVAAAPQGYISSDPRLMATKFKSSEVPNRELIGTDYVSKIVAKEKCLLNGTLLNEQPQGKRIRTLDDLDTDDEGEETEIRRDDEYYKKFRFNLNRDKNLSIYAKREEILAAINAHPVVIIKGETGCGKTTQVPQYILDEAYKSGKYCNIVVTQPRRIAAISIANRVCQEREWQQNTVCSFQVGLHRPNSLEDTRLLYCTTGVLLNNLINNKTLTHYTHIVLDEVHERDQNMDFLLIVVRRLLATNSRHVKIILMSATIDAKELSDYFTTTNSIPPVITTNHRRKHSIEKFYRDQLGSIIWNEEDVGHQQVPEINKHGYRAAVKIIVIIDNMERKAAIQSRQSYDEALRYGAVLIFLPGIYEIDTMAENLTCMLENDPNIKVSIVRCFSLMTPENQRDVFNPPPPGFRKIILTTNIAESSITVPDVSYVIDFCLAKVKVTDTASSFSSLRLTWASKANCRQRAGRVGRLRSGRVYRMVNKHFYQREMPEFGIPEMLRLPLQNSVLKAKVLNMGSPVEILALALSPPNLSDIHNTILLLKEVGALYLTVDGIYDPLDGDLTYWGTIMSRLPLDTRQSRLIILGYIFNMLEEAIIIAAGLSTPGLFAHEGGRSQLGDSFWMHYIFSDGSGSDLVAIWRVYLTYLNIVENGHDQESAIRWAKRFHVSLRSLKEIHLLVQELRVRCTHLGLIPFPVNPNQMMDDREKAIMLKVIIAGAFYPNYFTRSKESCADTDRNIYQTISGHDPCRTVYFTNFKPAYMGELYTRRIKELFQEVRIPPENMDVTFQEGSQKVFVTFKQDDWIEGSSKYVPVSGRVQSEVYKAVMMRQNRVERPIHIMNPSAFMSYVQQRGIGDVIEGRWIPPTKPLNVELLALPSVFDKTISGSITCIVNCGKFFFQPQSFEECIRNMSEIFNAPQQLRNYVTNASAIAKGMMVLAKRDSYFQRATVIRPENQSNRQPMFYVRFIDYGNCTLLPMQLMRLMPRELTEQYGDLPPRVFECRLAMVQPSSVVSGNNRWSTAANDMLKTVAQCGLIDIEVYSLFNNVAAVLIHMRDGIINDKLVELMLCRRSDEDYMSRKDHDFRLRRQESARNLSTAQRQQINEEYLRSCQLPQDHDLPPPPLEKCKTVVMLKGPNSPLECTMRSITRVGLSKRVNIDHLSVNALLLDADPQDHHDHLIVAHEIAESRNGQTLTARGTTLMPNVQGFGALMVMLFSPTMQLKCNKEGTSYVSVLGGLGCDPDTNEPYFAEHDVLINLDVNILEDDVILINQIRYYIDSVFFNFKEENNPAVSVNERVSIYTQLRSLINRLLCKDRRYIERNMSNADFEWETNPELPLPNEPFGKRAIFPMHSLTELQEEDTGRLVQLRENCSMLHKWRNFEGTLPHMTCKLCNQLLESVPQLRLHLLTILHRDREKQIDYCNQ
B3: Ago3 (protein, UniProt Q7PLK0 1-867)
chain: MSGRGNLLSLFNKNAGNMGKSISSKDHEIDSGLDFNNSESSGERLLSSHNIETDLITTLQHVNISVGRGRARLIDTLKTDDHTSNQFITSESKENITKKTKGPESEAIASENGLFFPDLIYGSKGSSVNIYCNYLKLTTDESKGVFNYEVRFFPPIDSVHLRIKYLNDHKDKLGGTKTFDGNTLYLPILLPNKMTVFISKAEDVELQIRILYKKKEEMRNCTQLYNILFDRVMKVLNYVKFDRKQFDPSRPKIIPLAKLEVWPGYVTAVDEYKGGLMLCCDVSHRILCQKTVLEMLVDLYQQNVEHYQESARKMLVGNIVLTRYNNRTYKINDICFDQNPTCQFEIKTGCTSYVEYYKQYHNINIKDVNQPLIYSIKKSRGIPAERENLQFCLIPELCYLTGLRDEVRSDNKLMREIATFTRVSPNQRQMALNKFYENVSNTPAAQEILNSWGLSLTNNSNKISGRQMDIEQIYFSKISVSAGRSAEFSKHAVTNEMLKVVHLSKWIIIHLRNYRQAATSLLDNMKQACESLGMNISNPTMISLDHDRIDAYIQALRRNITMNTQMVVCICHNRRDDRYAAIKKICCSEIPIPSQVINAKTLQNDLKIRSVVQKIVLQMNCKLGGSLWTVKIPFKNVMICGIDSYHDPSNRGNSVAAFVASINSSYSQWYSKAVVQTKREEIVNGLSASFEIALKMYRKRNGKLPTNIIIYRDGIGDGQLYTCLNYEIPQFEMVCGNRIKISYIVVQKRINTRIFSGSGIHLENPLPGTVVDQHITKSNMYDFFLVSQLVRQGTVTPTHYVVLRDDCNYGPDIIQKLSYKLCFLYYNWAGTVRIPACCMYAHKLAYLIGQSIQRDVAEALSEKLFYL

Columns and labels:
[1] = target: TDRD3 (Drosophila) (Drosophila (endogenous in fly ovaries and OSS cells)) (UniProt Q9VUH8); assay: affinity purification with mass spectrometry; reciprocal TDRD3 and Piwi IP from OSS cell lysates (Ripa buffer); IP buffer 20mM Hepes pH 7.9, 200mM NaCl, 0.1% NP40, 4 hours at 4 C; MS of the eluates
[2] = target: FLAG-tagged Top3b (Flag-Top3b), Drosophila topoisomerase 3b (Drosophila); assay: affinity purification with mass spectrometry; FLAG IP from ovary lysates of Flag-Top3b flies, mock IP from control flies lacking Flag-Top3b; silver staining and MS, two replicates; hits with >2-fold unique peptide enrichment in both replicates

| Molecule | binding [1] | binding [2] |
| --- | --- | --- |
| Nxf1 (from UniProt Q9U1H9 1-672) | binds |  |
| Nxf2 (from UniProt Q9VV73 1-841) | binds |  |
| B1 | binds | binds |
| B2 | binds |  |
| B3 |  | no binding |

These are yes or no findings as the source states them, for the method shown. In cells and extracts the contact can be indirect. Here binding means that the protein was enriched with, or labelled near, the bait; the list need not be complete. For part of these data: A no says only that the protein was not detected with the bait.
